Measured values published in paper PMC3245271.
These are yes or no findings as the source states them, for the method shown. Binding seen in cells or lysates may run through a third protein. Some entries that bind do so weakly or less than the wild type.

Protein sequences, listed by entry. Tags and fused reporters are not part of them.
UniProt P78417: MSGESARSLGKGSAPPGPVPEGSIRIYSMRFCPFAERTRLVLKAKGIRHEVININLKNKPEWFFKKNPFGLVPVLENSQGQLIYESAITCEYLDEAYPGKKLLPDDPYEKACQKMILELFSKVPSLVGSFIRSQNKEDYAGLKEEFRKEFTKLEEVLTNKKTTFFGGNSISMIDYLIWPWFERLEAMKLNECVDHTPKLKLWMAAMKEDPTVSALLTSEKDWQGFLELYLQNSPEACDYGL
UniProt Q96P20: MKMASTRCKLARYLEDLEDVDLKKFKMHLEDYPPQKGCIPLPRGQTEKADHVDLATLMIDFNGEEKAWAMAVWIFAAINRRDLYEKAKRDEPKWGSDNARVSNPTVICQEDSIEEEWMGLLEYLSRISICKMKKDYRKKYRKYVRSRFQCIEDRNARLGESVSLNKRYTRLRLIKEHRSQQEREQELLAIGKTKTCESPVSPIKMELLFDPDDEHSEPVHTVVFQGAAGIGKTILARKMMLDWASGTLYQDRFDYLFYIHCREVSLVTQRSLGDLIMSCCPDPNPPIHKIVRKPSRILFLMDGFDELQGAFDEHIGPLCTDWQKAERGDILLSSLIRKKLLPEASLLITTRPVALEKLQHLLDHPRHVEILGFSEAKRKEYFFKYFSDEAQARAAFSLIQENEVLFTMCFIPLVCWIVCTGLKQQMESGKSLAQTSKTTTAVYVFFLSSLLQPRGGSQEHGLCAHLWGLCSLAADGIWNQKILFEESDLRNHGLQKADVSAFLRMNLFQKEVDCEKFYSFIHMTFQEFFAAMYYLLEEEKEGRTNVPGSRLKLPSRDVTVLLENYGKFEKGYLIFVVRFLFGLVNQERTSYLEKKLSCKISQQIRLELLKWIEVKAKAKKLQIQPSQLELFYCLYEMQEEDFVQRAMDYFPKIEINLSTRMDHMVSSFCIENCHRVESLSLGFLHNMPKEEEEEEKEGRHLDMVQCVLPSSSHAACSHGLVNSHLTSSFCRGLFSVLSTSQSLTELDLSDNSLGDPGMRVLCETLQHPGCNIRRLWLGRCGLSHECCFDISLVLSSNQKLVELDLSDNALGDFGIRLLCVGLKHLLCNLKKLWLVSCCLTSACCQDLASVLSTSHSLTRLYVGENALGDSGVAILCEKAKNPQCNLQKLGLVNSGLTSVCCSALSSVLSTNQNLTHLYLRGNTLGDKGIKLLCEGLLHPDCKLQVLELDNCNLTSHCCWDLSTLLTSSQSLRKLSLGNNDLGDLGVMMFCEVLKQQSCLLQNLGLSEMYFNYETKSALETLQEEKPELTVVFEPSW
UniProt Q9ULZ3: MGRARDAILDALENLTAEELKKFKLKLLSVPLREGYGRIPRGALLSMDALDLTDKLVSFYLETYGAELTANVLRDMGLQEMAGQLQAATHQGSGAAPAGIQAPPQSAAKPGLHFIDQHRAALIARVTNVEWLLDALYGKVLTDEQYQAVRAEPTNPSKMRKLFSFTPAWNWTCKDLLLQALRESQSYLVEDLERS

Tests used:
[1] = target: Glutathione S-Transferase Omega 1 (GSTO1), endogenous in HEK293T (human (endogenous in HEK293T)) (UniProt P78417); assay: co-IP; HEK293T transfected with HA-ASC, Myc-NLRP3, GSTO1 or empty vector; low stringency lysis buffer (50 mM Hepes pH 7.5, 100 mM NaCl, 1 mM EDTA, 10% glycerol, 0.5% NP-40); precipitated with anti-GSTO1 antibody or rabbit IgG on Protein A/G beads at 4°C; Western blot with anti-HA, anti-Myc, anti-GSTO1
[2] = target: Glutathione S-Transferase Omega 1 (GSTO1), overexpressed (human) (UniProt P78417); assay: as above

## Myc-NLRP3 (from UniProt Q96P20 1-1036)
[1]
  binding: no binding
[2]
  binding: no binding

## HA-ASC (from UniProt Q9ULZ3 1-195)
[1]
  binding: binds
[2]
  binding: binds
